We go through 2 molecules from publication PMC7538545.

Chains of the proteins cited; added tags and fusions are not shown. Residues count along the entry.
UniProt P07237, residues 18-508: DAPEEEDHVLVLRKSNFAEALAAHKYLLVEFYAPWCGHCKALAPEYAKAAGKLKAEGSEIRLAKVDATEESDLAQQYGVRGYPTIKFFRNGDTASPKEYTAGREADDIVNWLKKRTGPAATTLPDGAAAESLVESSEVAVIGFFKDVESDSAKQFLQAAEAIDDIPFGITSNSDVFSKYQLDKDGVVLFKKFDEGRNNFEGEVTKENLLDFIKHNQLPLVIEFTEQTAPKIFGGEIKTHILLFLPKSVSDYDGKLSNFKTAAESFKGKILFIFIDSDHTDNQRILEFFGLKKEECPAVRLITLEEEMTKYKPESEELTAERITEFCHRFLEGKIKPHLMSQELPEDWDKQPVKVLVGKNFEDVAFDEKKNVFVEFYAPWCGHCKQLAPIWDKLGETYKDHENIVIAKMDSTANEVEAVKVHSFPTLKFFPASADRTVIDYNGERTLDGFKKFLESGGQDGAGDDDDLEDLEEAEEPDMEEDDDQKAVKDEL
UniProt Q2GH86: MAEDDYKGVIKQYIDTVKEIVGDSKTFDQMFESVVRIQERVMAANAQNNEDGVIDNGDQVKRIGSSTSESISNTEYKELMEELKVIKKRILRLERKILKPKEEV

Results are given in words; binding and its absence hold for the method and conditions named. In cells and extracts the contact can be indirect. Some results given as binding are weak or reduced against the parent protein; the word gives no strength. Tags and fused reporters may be left off the sequences shown.

The target of this assay is Flag-PDI (protein disulfide isomerase) (UniProt P07237). Nature of the assay: co-IP; Flag-PDI co-expressed with GFP-EplA, GFP-Asp14 or GFP in HEK-293T cells; 16 h after transfection lysates incubated with Flag antibody-conjugated agarose; eluates blotted with GFP and Flag antibodies.

For the molecule “GFP-EplA (E. chaffeensis PDI ligand A, ECH_0377) (from UniProt Q2GH86 1-104)”, the binding entry was “binds”.

B1: GFP-Asp14 (14-kDa A. phagocytophilum surface protein) (protein, UniProt Q2GL86 1-124)
chain: MIPLAPWKSISVVYMSGSDEYKEIIKQCIGSVKEVFGEGRFDDVVASIMKMQEKVLASSMQQDDTGTVGQIESGEGSGARLSDEQVQQLMNSIREEFKDDLRAIKRRILKLERAVYGANTPKES
For the molecule B1, the binding entry is recorded as “binds”.
